Values of other authors in patent EP2550959A1 (priority 2011, dated 2013).

Chains of the proteins cited; added tags and fusions are not shown. Residues count along the entry.
UniProt P50129, whole entry: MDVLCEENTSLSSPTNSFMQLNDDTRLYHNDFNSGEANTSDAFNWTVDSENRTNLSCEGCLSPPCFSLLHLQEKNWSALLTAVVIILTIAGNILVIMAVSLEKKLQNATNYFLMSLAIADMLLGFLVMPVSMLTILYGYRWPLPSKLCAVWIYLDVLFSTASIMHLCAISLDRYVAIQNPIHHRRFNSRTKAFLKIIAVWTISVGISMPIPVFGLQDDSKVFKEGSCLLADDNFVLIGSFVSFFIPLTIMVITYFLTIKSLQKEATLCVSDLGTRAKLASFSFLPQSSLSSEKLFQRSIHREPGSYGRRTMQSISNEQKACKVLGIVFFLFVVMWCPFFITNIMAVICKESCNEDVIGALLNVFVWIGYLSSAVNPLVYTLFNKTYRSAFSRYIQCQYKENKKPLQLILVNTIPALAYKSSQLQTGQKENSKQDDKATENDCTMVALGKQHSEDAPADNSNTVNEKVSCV
UniProt F1SMV8, 1-481: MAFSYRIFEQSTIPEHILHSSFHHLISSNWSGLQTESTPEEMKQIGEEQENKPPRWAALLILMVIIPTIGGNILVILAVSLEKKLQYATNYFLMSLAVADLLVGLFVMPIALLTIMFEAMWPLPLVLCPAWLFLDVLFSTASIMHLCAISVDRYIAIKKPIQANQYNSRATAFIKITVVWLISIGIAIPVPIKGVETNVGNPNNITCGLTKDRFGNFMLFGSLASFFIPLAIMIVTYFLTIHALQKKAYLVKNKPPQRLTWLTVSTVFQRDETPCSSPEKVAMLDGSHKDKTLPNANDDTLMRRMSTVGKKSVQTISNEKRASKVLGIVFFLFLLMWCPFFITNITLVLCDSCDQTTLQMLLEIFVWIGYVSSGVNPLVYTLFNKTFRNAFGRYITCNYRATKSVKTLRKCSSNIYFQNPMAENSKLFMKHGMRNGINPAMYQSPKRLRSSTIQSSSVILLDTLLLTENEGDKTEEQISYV
UniProt P30994, whole entry: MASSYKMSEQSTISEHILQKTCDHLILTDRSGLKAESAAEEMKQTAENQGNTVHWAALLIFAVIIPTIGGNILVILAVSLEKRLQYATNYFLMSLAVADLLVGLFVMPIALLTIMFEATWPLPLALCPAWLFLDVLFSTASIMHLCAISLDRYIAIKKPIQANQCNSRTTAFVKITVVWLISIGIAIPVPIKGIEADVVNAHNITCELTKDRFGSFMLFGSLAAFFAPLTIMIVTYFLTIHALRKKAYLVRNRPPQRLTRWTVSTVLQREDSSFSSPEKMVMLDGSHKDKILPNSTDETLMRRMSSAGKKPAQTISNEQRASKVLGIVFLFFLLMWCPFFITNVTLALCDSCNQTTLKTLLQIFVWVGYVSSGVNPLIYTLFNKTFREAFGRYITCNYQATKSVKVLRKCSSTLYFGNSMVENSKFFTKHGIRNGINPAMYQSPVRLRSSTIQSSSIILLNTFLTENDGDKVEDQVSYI

Assays:
[1] = biological target: 5-HT2A Rezeptoren von Schweineherzkranzarterien (Sus scrofa, UniProt P50129); details: cited from earlier work
[2] = biological target: 5-HT2B Rezeptoren von Schweinelungenarterien (Sus scrofa, UniProt F1SMV8); details: under physiological conditions; not surmountable by highest 5-HT concentrations; cited from earlier work
5-HT2B-Rezeptoren = 5-HT2B-Rezeptoren (Rattus norvegicus, UniProt P30994); details: in vitro, isolated rat stomach [Villalon et al. 2003]; cited from earlier work

## CCN(CC)C(=O)N[C@H]1C=C2c3cccc4[nH]cc(c34)C[C@H]2N(C)C1 [Lisurid, 3-(9,10-didehydro-6-methylergoline-8alpha-yl)-1,1-diethylurea]
[1]; also at high concentrations
  intrinsische agonistische Aktivität: keine intrinsische agonistische Aktivität
[1]; footnote a: pD'2 (non-competitive antagonism), footnote c: value from Diss. Jähnichen, FU Berlin, 2005
  5-HT2A pD'2 -Wert: 9.40 0.05^a,c
[1]; under physiological conditions
  type of antagonism at the 5-HT2A-Rezeptor: nicht-kompetitiver Antagonist
[2]
  type of antagonism at the 5-HT2B-Rezeptor: irreversibler Antagonist
5-HT2B-Rezeptoren
  anti-serotoninerge Potenz: besonders hohe anti-serotoninerge Potenz
